# No constants are given. Whether binding was seen depends on the method and setting. In cells and extracts the contact can be indirect. These calls come from enrichment with a bait or labelling near it, and not all partners need be listed. Tags and fused reporters may be left off the sequences shown.
# B1: CulE (protein, UniProt Q54XF7 1-750)
# chain: MSDQITVDELWAECEQTFEDLFLNLKKGLSRKRYMEIYTKIYNYCSSANEKALIDFYIPKVKVLVAQKAVEIMSRSESYPNDALLLFFRNQWNEWKMSSNVLKNLLSPVNKIHSSDKKTTSSSANQNESVVYSDTLNSWRETAFNPLKNKLSVSLLQIIKNDRTGFSTNLQVLSDSLECYVQLGPEKNKLEIYQSCFEQQFLQETETFYKAESADFIEKNGVCEYMRHVYNRIEQETNRVNQYMPISTLEKLTKILNNVLISNYKEQFASKFLDILIEDKSSDLVMMYSLLSRVNHLTPLKNIFSDFIKSEGLKEIESNLKEAQEKPQVLISILLKIYSRFNIMIKECYGNDTDFTTAMDKSFSILVNENPASYDPKKKESNIPVVLSKFCDQILRKGPHHISDEAELEKKLTEAVCLFKYLPDKDIFMLNYQKMLSKRLVEDLSASEDAETLMINKLKNYQGFDYCTKLTRMITDMRLCKDININFQNHLNEKSLTLPYQFNFYVLTNGSWTLTNKQTATPFKPPSEMLSSITYFESFYKKSYQGRVLTFLYDFSRADVDSRQAKGKIYKLTTTAYQMAILLMFNGADKITRFLINDTIGLDETSIRLPLLALIKTGIIECSEPSFKNWNNDTEFTVNSKFSSKKMKVSCNIAVQIGETKQSEGQQTVSEQEIEKERFFKLQAAIVRIMKSKKTMTHNDLTVETTTQVSKWFTPKITAIKKAIEYLIDQEYIRRTTDDNPSARKYEYMA
# B2: CulA (protein, UniProt O60999 1-770)
# chain: MSMMTSTPTKRSVKLDDIWPELEEGIYKIITDLNKGFPKQKWIALYTHVYDYCAASQSKSSAKVGMPKQQASGANYVGEDLYNRLNLFLKKHMSQLLKLTETKMDEPLLNYYYTEWDRYTSAMKYINNIFQYMNRYWIKREIDDGKKEVYEIFILSLVIWRDCLFTPLKQRLTNSLLDIIESERNGYQINTHLIKGVINGYVSLGLNREKPKETILQVYKSGFEELFLTATENYYTNESAKFISENSVADYMKKVETRLNEEVKRVQQYLHQNTESELIAKCEKVLIEKHVEVIWNEFQTLLEKDKIPDLTRMYSLLSRIPRGLEPLRTTLEKHVQNVGLQAVSSIATNGVIEPKVYIETLLKVFKKYNELVTGAFRSDTGFVASLDKACRRFINENAVTIAAKSSSKSPELLARFTDFLLKKSPNNPEESEMEQLLNDVMIVFKYIEDKDVFQDFYSKMLAKRLIHGTSTSEDLEGTMIGKLKSTCGYEYTSKLQRMFTDMSLSRELLDRFNNHIEQVERSSLNIDFSVLVLATGSWPLQPPSTNFSIPKELQACEQLFQKFYQNQHSGRKLNWLHHLSKGELKTKYLQTSKSGYTLQCSTYQIGVLLQFNQYETLTSEEIQESTQLIDSVLKGTLTSLAKSKILLADPPLDDEEIAKTTKFSLNKQFKNKKTKIFINVPVLTQVKEEIDSIHKTVEEDRKLQIQAAIVRIMKMRKQLAHSGLMTEVISQLQTRFNPKVNIIKKCIDILIEKEYLMRVEGKKDHYSYVA
# Biological target: T1, Skp1-myc (C-terminally myc-tagged Skp1B) (D. discoideum) (UniProt Q557E4)
# T1 sequence: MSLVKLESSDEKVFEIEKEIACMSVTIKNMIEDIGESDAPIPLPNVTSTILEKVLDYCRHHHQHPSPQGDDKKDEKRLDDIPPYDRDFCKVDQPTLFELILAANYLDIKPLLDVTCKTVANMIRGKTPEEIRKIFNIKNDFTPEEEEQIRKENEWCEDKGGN
# Experiment: affinity purification with mass spectrometry; Skp1-myc captured with anti-c-myc (mAb 9E10) magnetic beads from S21 lysate of vegetative cells (250 mM NaCl, 50 mM Tris-HCl pH 8.0, 0.2% NP-40), 4 °C 1 h; control: untagged strain; label-free nLC-MS/MS
binder,measurement,value
B1,binding,binds
B2,binding,binds
